According to PMC7819943, “Rice protein-binding microarrays: a tool to detect cis-acting elements near promoter regions in rice”:
Some of the results follow.

The chains behind the UniProt entries cited, without tags or fusion partners.
UniProt Q0JBA9, entry or part of it: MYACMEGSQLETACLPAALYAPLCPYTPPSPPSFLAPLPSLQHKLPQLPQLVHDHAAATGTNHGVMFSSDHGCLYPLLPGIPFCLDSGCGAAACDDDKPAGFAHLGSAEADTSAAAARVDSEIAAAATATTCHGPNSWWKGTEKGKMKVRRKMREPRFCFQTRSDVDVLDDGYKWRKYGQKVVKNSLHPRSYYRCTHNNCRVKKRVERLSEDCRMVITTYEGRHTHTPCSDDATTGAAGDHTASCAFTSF

target: OsWRKY34 (Oryza sativa, UniProt Q0JBA9 1-250); assay: protein-binding microarray (RPBM); PBS, 2% BSA, 51.3 ng/ul salmon testes DNA, 50 uM zinc acetate, 200 nM TF, 25 C, 1 h; high values mean tight binding; conditions: protein: recombinant; tags: N-terminal polyhistidine and DsRed monomer fusion (pET32a); label: CyDye5-dUTP incorporated in the synthesized complementary strand; 3' TTTTT single-stranded linker to array surface; dsDNA, one strand shown
Outline: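 Binding signal is defined as the fluorescence intensity of each feature in arbitrary units, read on an Axon 4000B scanner. Transcription factors with N-terminal polyhistidine and DsRed fusions came from E. coli BL21-CodonPlus and were purified on Ni–NTA. They were incubated at 200 nM for 1 h at 25 °C on a custom Agilent array that had been made double-stranded with Cy5-dUTP, with 50 µM zinc acetate present, and the array was washed.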

Row | Sequence | binding signal
1 | TTACGCCTCGAGATCCGTGCGGCGCCCCATCCGCCGCGGCCGGAGTCACCTAGTGCAG | 8460 fluorescence intensity (a.u.)
2 | AGATTAACACTTATCTCCTTGTGTTGTTGTCCTTGCTCAGCGGAGTCACCTAGTGCAG | 11200 fluorescence intensity (a.u.)
3 | CAAAAATATTCAGCCGCAATCCTTCTCTTTTTACACCATACGGAGTCACCTAGTGCAG | 8720 fluorescence intensity (a.u.)
4 | CCTCCGTTTCACAATGTAAGTCATTCTAGCATTTCCCACACGGAGTCACCTAGTGCAG | 8370 fluorescence intensity (a.u.)
5 | CACCACATTGATCCCTCCGACGCTGTCGTCCACCGCATTCCGGAGTCACCTAGTGCAG | 8510 fluorescence intensity (a.u.)
6 | CCCGCGCTTAACTCGCTCTCGCCTCCCGCATCGCATCTCCCGGAGTCACCTAGTGCAG | 9390 fluorescence intensity (a.u.)
7 | ATTTACTGATTACTGCCCCAGATTTGCTACAGTCCCCATACGGAGTCACCTAGTGCAG | 8140 fluorescence intensity (a.u.)
8 | AGTGGCCTTCATCTCGGTGTTCCCCATTTGAGCTAGCTAACGGAGTCACCTAGTGCAG | 11300 fluorescence intensity (a.u.)
9 | CGCCGCCGCCGCCGCCGCCGCGCTCGCTCGCTCGCTTCTTCGGAGTCACCTAGTGCAG | 10200 fluorescence intensity (a.u.)
10 | GGTTTCCATGTCCAACGTTTGACTGTCCGTCTTATATGAACGGAGTCACCTAGTGCAG | 8850 fluorescence intensity (a.u.)
11 | TTTGTTAATTTAGTGCTCGATCGTACACCTCTGGATCTCACGGAGTCACCTAGTGCAG | 8060 fluorescence intensity (a.u.)
12 | ATGAACTTAGTTGTTTTTTTTTGGGTTTTACTTGCATAATCGGAGTCACCTAGTGCAG | 8220 fluorescence intensity (a.u.)
13 | ATATCTGTAGTTCGTTGCTATTCTCTCTTATCTTTTATCTCGGAGTCACCTAGTGCAG | 13900 fluorescence intensity (a.u.)
14 | CACATGTCTCTGAACCTCCTGAACCCTCTTGCTGTCTCATCGGAGTCACCTAGTGCAG | 8460 fluorescence intensity (a.u.)
15 | TGAAGCCAGTTCCACCTCATTCTTGTGTTTTTATGCTTCACGGAGTCACCTAGTGCAG | 10700 fluorescence intensity (a.u.)
16 | TCTTCTAATATATTGACGTGCAATTTTTTTACGCGTTCGCCGGAGTCACCTAGTGCAG | 9860 fluorescence intensity (a.u.)
17 | TATATATATATATATATATATATATCTGATGCTCTCTTGCCGGAGTCACCTAGTGCAG | 31700 fluorescence intensity (a.u.)
18 | CATTGATCACTCGCTCTGCTCACATTCTGATACTGCGATGCGGAGTCACCTAGTGCAG | 8540 fluorescence intensity (a.u.)
19 | GGCTTCCCTCCGGCTCGAGCCAATCTCTCGCTGTGTCTCTCGGAGTCACCTAGTGCAG | 8320 fluorescence intensity (a.u.)
20 | TTACCCTTGTACCCATATACACACTAGTCGCTTTCTCTCACGGAGTCACCTAGTGCAG | 10200 fluorescence intensity (a.u.)
21 | CTGCGGGAGGACGGGTCCGGGGCGGGGTCCGGGTCGGTGCCGGAGTCACCTAGTGCAG | 9780 fluorescence intensity (a.u.)

Rewritten in CSV form: entries from further up.
Row,Sequence,binding signal
4,CCTCCGTTTCACAATGTAAGTCATTCTAGCATTTCCCACACGGAGTCACCTAGTGCAG,8370 fluorescence intensity (a.u.)
21,CTGCGGGAGGACGGGTCCGGGGCGGGGTCCGGGTCGGTGCCGGAGTCACCTAGTGCAG,9780 fluorescence intensity (a.u.)

The results go on:

Row | Sequence | binding signal
22 | CCACGTCGTCGTTGATCTTTCCTCTTTCAGGCTTAGCCCTCGGAGTCACCTAGTGCAG | 8930 fluorescence intensity (a.u.)
23 | CATAGGGGTAGGGTTTGCTGTGTGCCTTCATAGGGTTGAGCGGAGTCACCTAGTGCAG | 11700 fluorescence intensity (a.u.)
24 | CTATAAGTACACTCGCGGGGCACGCTCTCTCTCTCTCCGACGGAGTCACCTAGTGCAG | 10200 fluorescence intensity (a.u.)
25 | GTGTCCGACCATATTCGATCCTTATTCGTATCCGCAATAACGGAGTCACCTAGTGCAG | 8340 fluorescence intensity (a.u.)
26 | CGTCGCCGCCGCCGGCGTCTTCTCCACCTCCTCCGCGCCGCGGAGTCACCTAGTGCAG | 8030 fluorescence intensity (a.u.)
27 | AGGCGGCGGGGTGGCGGTGGTGGTGGTGGTGGTGGTGATGCGGAGTCACCTAGTGCAG | 19000 fluorescence intensity (a.u.)
28 | GTTTTATTGATGGGAAAAAAATTACTTTCCTGTTTTCTATCGGAGTCACCTAGTGCAG | 8450 fluorescence intensity (a.u.)
29 | CGCAATTCTGGGCCTGCAACCACATCGCTTCGCCGCCGTACGGAGTCACCTAGTGCAG | 9840 fluorescence intensity (a.u.)
30 | ACTCGATTTCCTTTCTTGGCCTCTCCTCCTCTGACACAGGCGGAGTCACCTAGTGCAG | 8550 fluorescence intensity (a.u.)
31 | GTACTTAAGAATATGCACTCATCCAAGCCATGTTCCATACCGGAGTCACCTAGTGCAG | 9580 fluorescence intensity (a.u.)
32 | CGATTCCACCACTTGACACATCCATCGATCACTCCTCCCCCGGAGTCACCTAGTGCAG | 8910 fluorescence intensity (a.u.)
33 | GTCTGAGTACACTTCTGAGGCTTCTTTGGTCGTTTTGGCCCGGAGTCACCTAGTGCAG | 9790 fluorescence intensity (a.u.)
34 | ACCCTTCCGCTTTGCCCCTGCTGCCTACACCGCCCCACCGCGGAGTCACCTAGTGCAG | 8300 fluorescence intensity (a.u.)
35 | CCTCACGCCATCATGTACTGTGCTGCTTTGCCGTTTCGATCGGAGTCACCTAGTGCAG | 10300 fluorescence intensity (a.u.)
36 | CAACCGGTGGCCCGGTCCGGTATTTTCGTCCGGTTTTTTCCGGAGTCACCTAGTGCAG | 9650 fluorescence intensity (a.u.)
37 | CAGTCGATCCGCCCCACCGCTGTGTGTGTCTCAGTCCTCGCGGAGTCACCTAGTGCAG | 8070 fluorescence intensity (a.u.)
38 | ACTAATCATCTCAATTTCTCAAGCCCAACCGTATTGGCTCCGGAGTCACCTAGTGCAG | 8520 fluorescence intensity (a.u.)
39 | TTTTGCTATTTCGTTTATGTTCAAATGATGTATTTGTTTTCGGAGTCACCTAGTGCAG | 9030 fluorescence intensity (a.u.)
40 | AGTAATAAACGTAACCTTTTCCTCCTATTTTATTTCACCTCGGAGTCACCTAGTGCAG | 8290 fluorescence intensity (a.u.)
41 | CAAACATTATTTTAAAAGTCAACGGCGTCATCTATTTAAACGGAGTCACCTAGTGCAG | 9430 fluorescence intensity (a.u.)
42 | ATGGTGTTTGATGCTCGTATGTTGCTATTCAATTTTGATGCGGAGTCACCTAGTGCAG | 8400 fluorescence intensity (a.u.)
